Article PMC4641468
These are yes or no findings as the source states them, for the method shown. In cells and extracts the contact can be indirect. Some entries that bind do so weakly or less than the wild type. Values belong to the molecule of their own block, whether it stands above or below them.

Sequences of proteins named here, by UniProt entry; tags and fusion partners are left off.
UniProt Q6ZPR4: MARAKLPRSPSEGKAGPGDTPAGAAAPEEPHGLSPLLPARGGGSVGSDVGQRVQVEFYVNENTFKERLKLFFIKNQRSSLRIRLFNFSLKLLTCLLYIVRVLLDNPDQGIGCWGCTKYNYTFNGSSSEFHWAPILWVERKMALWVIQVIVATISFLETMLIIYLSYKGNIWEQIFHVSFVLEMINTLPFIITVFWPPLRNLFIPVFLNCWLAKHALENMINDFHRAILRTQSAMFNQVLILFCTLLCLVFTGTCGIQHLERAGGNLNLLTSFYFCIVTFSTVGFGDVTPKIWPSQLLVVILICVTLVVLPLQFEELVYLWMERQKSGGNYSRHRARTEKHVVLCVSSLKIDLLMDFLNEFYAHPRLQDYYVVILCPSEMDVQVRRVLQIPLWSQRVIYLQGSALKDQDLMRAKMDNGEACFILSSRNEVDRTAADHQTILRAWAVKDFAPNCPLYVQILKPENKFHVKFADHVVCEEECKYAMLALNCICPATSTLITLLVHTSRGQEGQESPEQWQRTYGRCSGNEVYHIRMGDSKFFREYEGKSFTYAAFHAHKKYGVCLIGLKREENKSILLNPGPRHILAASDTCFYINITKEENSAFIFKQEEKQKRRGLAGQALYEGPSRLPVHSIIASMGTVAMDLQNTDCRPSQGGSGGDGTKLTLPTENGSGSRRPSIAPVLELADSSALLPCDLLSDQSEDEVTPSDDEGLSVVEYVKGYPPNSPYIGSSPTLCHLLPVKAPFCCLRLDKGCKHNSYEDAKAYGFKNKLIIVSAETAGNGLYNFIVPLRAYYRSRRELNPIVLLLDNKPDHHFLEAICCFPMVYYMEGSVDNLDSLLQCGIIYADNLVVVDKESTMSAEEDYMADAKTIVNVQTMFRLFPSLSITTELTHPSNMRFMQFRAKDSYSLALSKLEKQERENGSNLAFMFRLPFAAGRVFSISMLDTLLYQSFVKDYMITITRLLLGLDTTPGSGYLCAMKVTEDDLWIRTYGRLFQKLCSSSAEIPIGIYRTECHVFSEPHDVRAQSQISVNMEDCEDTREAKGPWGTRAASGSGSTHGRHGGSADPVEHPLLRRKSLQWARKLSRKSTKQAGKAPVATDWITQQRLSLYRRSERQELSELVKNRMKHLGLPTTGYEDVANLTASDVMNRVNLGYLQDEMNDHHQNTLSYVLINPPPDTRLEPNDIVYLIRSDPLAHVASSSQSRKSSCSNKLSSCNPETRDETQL

Tests used:
[1] = target: T1, Slo2.1 (Slick channel subunit, gene Kcnt2) (mouse (endogenous in mouse brain, DRG, spinal cord, cortex)) (UniProt D3Z649); assay: condition: only the two subunits mixed after separate preparation of Slo2.2 KO and Slo2.1 KO brain membrane proteins; co-IP; mix of separately prepared Slo2.2 KO and Slo2.1 KO mouse brain membrane protein preparations; IP with anti-Slo2.1 antibody, western blot for Slo2.2; 62.5 ug protein per IP
T1 sequence: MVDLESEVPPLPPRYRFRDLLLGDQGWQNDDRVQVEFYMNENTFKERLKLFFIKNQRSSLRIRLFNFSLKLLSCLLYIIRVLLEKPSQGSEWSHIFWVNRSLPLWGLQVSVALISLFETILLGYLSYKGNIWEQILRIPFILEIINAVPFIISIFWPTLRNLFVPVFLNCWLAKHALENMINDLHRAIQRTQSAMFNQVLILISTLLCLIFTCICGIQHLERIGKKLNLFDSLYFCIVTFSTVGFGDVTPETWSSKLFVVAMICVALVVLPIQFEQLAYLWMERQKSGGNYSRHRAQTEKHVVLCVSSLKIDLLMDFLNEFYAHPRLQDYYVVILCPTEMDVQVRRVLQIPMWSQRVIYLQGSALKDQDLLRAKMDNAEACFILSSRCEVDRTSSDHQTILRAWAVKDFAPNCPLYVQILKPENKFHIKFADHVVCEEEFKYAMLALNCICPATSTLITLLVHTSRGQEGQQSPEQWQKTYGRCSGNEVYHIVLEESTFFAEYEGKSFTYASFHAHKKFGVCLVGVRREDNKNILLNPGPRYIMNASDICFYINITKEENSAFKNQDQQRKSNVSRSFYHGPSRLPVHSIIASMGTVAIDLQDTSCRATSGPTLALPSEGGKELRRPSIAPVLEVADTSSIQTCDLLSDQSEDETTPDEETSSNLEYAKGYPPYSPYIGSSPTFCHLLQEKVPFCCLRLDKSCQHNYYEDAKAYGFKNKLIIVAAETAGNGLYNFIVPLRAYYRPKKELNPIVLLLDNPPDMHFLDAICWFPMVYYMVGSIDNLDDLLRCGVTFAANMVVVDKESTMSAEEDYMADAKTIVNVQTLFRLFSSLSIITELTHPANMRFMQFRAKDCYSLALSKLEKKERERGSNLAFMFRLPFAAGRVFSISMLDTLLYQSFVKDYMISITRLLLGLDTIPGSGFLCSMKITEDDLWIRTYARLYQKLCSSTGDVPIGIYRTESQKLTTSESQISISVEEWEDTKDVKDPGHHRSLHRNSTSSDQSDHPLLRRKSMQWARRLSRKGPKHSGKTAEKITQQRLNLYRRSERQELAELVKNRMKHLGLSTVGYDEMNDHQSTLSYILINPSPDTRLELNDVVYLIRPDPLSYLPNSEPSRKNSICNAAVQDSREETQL

[2] = target: T1, Slo2.1 (Slick channel subunit, gene Kcnt2) (mouse (endogenous in mouse brain, DRG, spinal cord, cortex)); assay: co-IP; WT mouse tissues: DRG total protein (3 mg), spinal cord (1 mg) and cortex (0.3-0.5 mg) membrane proteins; sequential IP with anti-Slo2.1 or anti-Slo2.2 antibody and western blot for the other subunit
[3] = target: T1, Slo2.1 (Slick channel subunit, gene Kcnt2) (mouse (endogenous in mouse brain, DRG, spinal cord, cortex)); assay: co-IP; WT mouse whole brain membrane proteins (2% Triton X-100 lysis buffer), 62.5 ug protein per IP; IP with 8 ug monoclonal anti-mSlo2.1 (N11/33) or anti-mSlo2.2 (N3/26) and Protein A/G Plus agarose beads at 4°C, washed with 1% Triton X-100 in PBS; western blot for the other subunit; Slo2.1 KO and Slo2.2 KO membranes as controls
[4] = target: Slo2.2 (Slack channel subunit, gene Kcnt1) (mouse (endogenous in mouse brain, DRG, spinal cord, cortex)) (UniProt Q6ZPR4); assay: co-IP; WT mouse tissues: DRG total protein (3 mg), spinal cord (1 mg) and cortex (0.3-0.5 mg) membrane proteins; sequential IP with anti-Slo2.1 or anti-Slo2.2 antibody and western blot for the other subunit
[5] = target: Slo2.2 (Slack channel subunit, gene Kcnt1) (mouse (endogenous in mouse brain, DRG, spinal cord, cortex)) (UniProt Q6ZPR4); assay: co-IP; WT mouse whole brain membrane proteins (2% Triton X-100 lysis buffer), 62.5 ug protein per IP; IP with 8 ug monoclonal anti-mSlo2.1 (N11/33) or anti-mSlo2.2 (N3/26) and Protein A/G Plus agarose beads at 4°C, washed with 1% Triton X-100 in PBS; western blot for the other subunit; Slo2.1 KO and Slo2.2 KO membranes as controls

binding [1]: no binding
binding [2]: binds
binding [3]: binds
Molecule: Slo2.2 (Slack channel subunit, gene Kcnt1) (from UniProt Q6ZPR4 1-1224)

binding [4]: binds
binding [5]: binds
B1: Slo2.1 (Slick channel subunit, gene Kcnt2) (protein, UniProt D3Z649 1-1135)
chain: T1 sequence
